This test concerns the target full-length human PD1 on cells (human) (UniProt Q15116). Put plainly: cell ELISA on CHO-PD1 cells (row 'CHO-PD1 EC50'). Background: ELISA stands for enzyme-linked immunosorbent assay.

Amino acid sequences for entries named in this document (tags omitted). A change or cut given only in a name is not applied to a line headed by its entry.
UniProt Q15116: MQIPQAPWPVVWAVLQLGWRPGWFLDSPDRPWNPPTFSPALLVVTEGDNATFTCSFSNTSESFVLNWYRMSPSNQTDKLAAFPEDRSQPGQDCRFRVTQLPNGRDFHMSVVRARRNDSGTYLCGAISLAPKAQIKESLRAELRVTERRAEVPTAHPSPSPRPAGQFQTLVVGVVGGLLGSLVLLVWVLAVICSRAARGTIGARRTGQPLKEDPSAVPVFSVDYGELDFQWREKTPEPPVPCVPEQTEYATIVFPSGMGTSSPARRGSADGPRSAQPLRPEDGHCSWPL

Results are given in words; binding and its absence hold for the method and conditions named. Some binding calls cover weakened binding; strength is not graded here.

B1: PD1-0103-0314 (antibody, human IgG1, V domains shown)
VH: EVQLLESGGGLVQPGGSLRLSCAASGFSFSSYTMSWVRQAPGKGLEWVATISGGGRDIYYPDSVKGRFTISRDNSKNTLYLQMNSLRAEDTAVYYCVLLTGRVYFALDSWGQGTLVTVSS
VL: EIVLTQSPATLSLSPGERATLSCRASESVDTSDNSFIHWYQQKPGQSPRLLIYRSSTLESGIPARFSGSGSGTDFTLTISSLEPEDFAVYYCQQNYDVPWTFGQGTKVEIK
With B1, the binding entry is recorded as “binds”.
